Laboratory results as given in patent US20010010827A1, “Method and composition for treatment of headache using magnesium” (priority 1991, published 2001).
For at least one compound, name, drawing or mass did not settle the structure.

System: chronic migrainous headache
Assay: Therapies tried in patient #27 for two months before the MgSO4 infusion
Assay type: in vivo, human
Conditions: acetaminophen 1000 mg or ibuprofen 400 mg four times/day, nabumetone 1000 mg/day for two weeks, cyproheptadine 4 mg nightly for two weeks
Procedure: Long-term results in patients with intermittent migraine attacks is difficult to gauge because of the variable frequency of migraines in these patients. Responses in patients with chronic headaches also varied. […] Various therapists (i.e., acetaminophen—1000 mg or ibuprofen—400 mg-four times/day; nabumetone— 1000 mg/day for two weeks; cyproheptadine—4 mg nightly for two weeks; physical exercise) were tried in this patient for two months prior to the infusion with no relief.

CN1CCC(=C2c3ccccc3C=Cc3ccccc32)CC1 [cyproheptadine]
relief of headache: no relief
